# Measured values from the supplement of paper PMC8728848.
# The other results are listed elsewhere or left out.
# B1: LlpB (Pseudomonas fluorescens) (protein)
# chain: MGSSHHHHHHSSGLVPRGSHMASSGFRIILFNSANNGTAILPPRNCLVAGQYLESPSKRYKLILEADGNLRLYDNGVPIWVADSSVPYTYVDNRPNTNLVTCFYMQGSAFLVDRVGSRTWATIGDWIDGAADRAYLQVQDDGNVVVVDGVPRWARFGFTPAALPNRGVFYPDHGTGPLPSFPVWSWTF
# What was measured:
# Assay in all cases: glycan array binding signal (z-score within array); higher = stronger binding
# Details in all cases: glycan notation: IUPAC condensed, linker removed
# [1] = biological target: Neu5Ac(a2-6)Gal(b1-4)GlcNAc(b1-2)Man(a1-3)[Neu5Ac(a2-3)Gal(b1-4)GlcNAc(b1-2)Man(a1-6)]Man(b1-4)GlcNAc(b1-4)GlcNAc
# How it was run: (§1)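 Columns mapping to the same glycan were averaged after glycan names were converted to IUPAC-condensed notation. The data come from 3228 arrays in the Consortium for Functional Glycomics database, limited to those with an available protein sequence. Binding is reported as a within-array Z-score averaged across arrays of one protein sequence and across linkers.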
# [2] = biological target: Neu5Ac(a2-6)Gal(b1-4)GlcNAc(b1-2)Man(a1-3)[Neu5Ac(a2-6)Gal(b1-4)GlcNAc(b1-2)Man(a1-6)]Man(b1-4)GlcNAc(b1-4)GlcNAc
# How it was run: as §1
# [3] = biological target: Neu5Ac(a2-6)Gal(b1-4)GlcNAc(b1-2)Man(a1-3)[Neu5Ac(a2-6)Gal(b1-4)GlcNAc(b1-2)Man(a1-6)]Man(b1-4)GlcNAc(b1-4)[Fuc(a1-6)]GlcNAc
# How it was run: as §1
# [4] = biological target: Neu5Ac(a2-6)Gal(b1-4)GlcNAc(b1-2)Man(a1-6)Man(b1-4)GlcNAc(b1-4)GlcNAc
# How it was run: as §1
# [5] = biological target: Neu5Ac(a2-6)Gal(b1-4)GlcNAc(b1-2)Man(a1-6)[Gal(b1-4)GlcNAc(b1-2)Man(a1-3)]Man(b1-4)GlcNAc(b1-4)GlcNAc
# How it was run: as §1
# [6] = biological target: Neu5Ac(a2-6)Gal(b1-4)GlcNAc(b1-2)Man(a1-6)[GlcNAc(b1-2)Man(a1-3)]Man(b1-4)GlcNAc(b1-4)GlcNAc
# How it was run: as §1
# [7] = biological target: Neu5Ac(a2-6)Gal(b1-4)GlcNAc(b1-2)Man(a1-6)[Man(a1-3)]Man(b1-4)GlcNAc(b1-4)GlcNAc
# How it was run: as §1
# [8] = biological target: Neu5Ac(a2-6)Gal(b1-4)GlcNAc(b1-2)[Neu5Ac(a2-6)Gal(b1-4)GlcNAc(b1-4)]Man(a1-3)[GlcNAc(b1-4)][Neu5Ac(a2-6)Gal(b1-4)GlcNAc(b1-2)[Neu5Ac(a2-6)Gal(b1-4)GlcNAc(b1-6)]Man(a1-6)]Man(b1-4)GlcNAc(b1-4)GlcNAc
# How it was run: as §1
# [9] = biological target: Neu5Ac(a2-6)Gal(b1-4)GlcNAc(b1-2)[Neu5Ac(a2-6)Gal(b1-4)GlcNAc(b1-4)]Man(a1-3)[GlcNAc(b1-4)][Neu5Ac(a2-6)Gal(b1-4)GlcNAc(b1-4)Man(a1-6)]Man(b1-4)GlcNAc(b1-4)GlcNAc
# How it was run: as §1
# [10] = biological target: Neu5Ac(a2-6)Gal(b1-4)GlcNAc(b1-2)[Neu5Ac(a2-6)Gal(b1-4)GlcNAc(b1-6)]Man(a1-6)[Neu5Ac(a2-6)Gal(b1-4)GlcNAc(b1-2)Man(a1-3)][GlcNAc(b1-4)]Man(b1-4)GlcNAc(b1-4)GlcNAc
# How it was run: as §1
# [11] = biological target: Neu5Ac(a2-6)Gal(b1-4)GlcNAc(b1-3)Gal(b1-3)GlcNAc
# How it was run: as §1
# [12] = biological target: Neu5Ac(a2-6)Gal(b1-4)GlcNAc(b1-3)Gal(b1-4)GlcNAc
# How it was run: as §1
# [13] = biological target: Neu5Ac(a2-6)Gal(b1-4)GlcNAc(b1-3)Gal(b1-4)GlcNAc(b1-2)Man(a1-3)[Neu5Ac(a2-6)Gal(b1-4)GlcNAc(b1-3)Gal(b1-4)GlcNAc(b1-2)Man(a1-6)]GalNAc
# How it was run: as §1
# [14] = biological target: Neu5Ac(a2-6)Gal(b1-4)GlcNAc(b1-3)Gal(b1-4)GlcNAc(b1-3)Gal(b1-4)GlcNAc
# How it was run: as §1
# [15] = biological target: Neu5Ac(a2-6)Gal(b1-4)GlcNAc(b1-3)Gal(b1-4)GlcNAc(b1-3)Gal(b1-4)GlcNAc(b1-2)Man(a1-3)[Neu5Ac(a2-6)Gal(b1-4)GlcNAc(b1-3)Gal(b1-4)GlcNAc(b1-3)Gal(b1-4)GlcNAc(b1-2)Man(a1-6)]GalNAc
# How it was run: as §1
# [16] = biological target: Neu5Ac(a2-6)Gal(b1-4)GlcNAc(b1-3)Gal(b1-4)GlcNAc(b1-3)GalNAc
# How it was run: as §1
# [17] = biological target: Neu5Ac(a2-6)Gal(b1-4)GlcNAc(b1-3)Gal(b1-4)GlcNAc(b1-3)[Neu5Ac(a2-6)Gal(b1-4)GlcNAc(b1-3)Gal(b1-4)GlcNAc(b1-6)]GalNAc
# How it was run: as §1
# [18] = biological target: Neu5Ac(a2-6)Gal(b1-4)GlcNAc(b1-3)Gal(b1-4)GlcNAc(b1-6)[Gal(b1-3)]GalNAc
# How it was run: as §1
# [19] = biological target: Neu5Ac(a2-6)Gal(b1-4)GlcNAc(b1-3)Gal(b1-4)[Fuc(a1-3)]GlcNAc(b1-3)Gal(b1-4)[Fuc(a1-3)]GlcNAc
# How it was run: as §1
# [20] = biological target: Neu5Ac(a2-6)Gal(b1-4)GlcNAc(b1-3)GalNAc
# How it was run: as §1
# [21] = biological target: Neu5Ac(a2-6)Gal(b1-4)GlcNAc(b1-3)[Neu5Ac(a2-6)Gal(b1-4)GlcNAc(b1-6)]GalNAc
# How it was run: as §1
# [22] = biological target: Neu5Ac(a2-6)Gal(b1-4)GlcNAc(b1-6)GalNAc
# How it was run: as §1
# [23] = biological target: Neu5Ac(a2-6)Gal(b1-4)GlcNAc(b1-6)[Gal(b1-3)GlcNAc(b1-3)]Gal(b1-4)Glc
# How it was run: as §1
# [24] = biological target: Neu5Ac(a2-6)Gal(b1-4)GlcNAc(b1-6)[Gal(b1-3)]GalNAc
# How it was run: as §1
# [25] = biological target: Neu5Ac(a2-6)Gal(b1-4)GlcNAc6S
# How it was run: as §1
# Neu5Ac(a2-6)GalNAc = biological target: Neu5Ac(a2-6)GalNAc
# How it was run: as §1
# [26] = biological target: Neu5Ac(a2-6)GalNAc(b1-4)GlcNAc
# How it was run: as §1
# [27] = biological target: Neu5Ac(a2-6)GalNAc(b1-4)GlcNAc6S
# How it was run: as §1
# [28] = biological target: Neu5Ac(a2-6)GlcNAc(b1-4)GlcNAc
# How it was run: as §1
# [29] = biological target: Neu5Ac(a2-6)GlcNAc(b1-4)GlcNAc(b1-4)GlcNAc
# How it was run: as §1
binder,measurement,setting,value
B1,glycan array binding signal (z-score),[1],1.31
same,glycan array binding signal (z-score),[2],0.404
same,glycan array binding signal (z-score),[3],3.58
same,glycan array binding signal (z-score),[4],1.11
same,glycan array binding signal (z-score),[5],-1.46
same,glycan array binding signal (z-score),[6],0.268
same,glycan array binding signal (z-score),[7],-0.557
same,glycan array binding signal (z-score),[8],1.22
same,glycan array binding signal (z-score),[9],0.108
same,glycan array binding signal (z-score),[10],-0.232
same,glycan array binding signal (z-score),[11],-0.105
same,glycan array binding signal (z-score),[12],-0.332
same,glycan array binding signal (z-score),[13],2.6
same,glycan array binding signal (z-score),[14],-0.225
same,glycan array binding signal (z-score),[15],0.207
same,glycan array binding signal (z-score),[16],-0.312
same,glycan array binding signal (z-score),[17],-0.061
same,glycan array binding signal (z-score),[18],0.354
same,glycan array binding signal (z-score),[19],-0.376
same,glycan array binding signal (z-score),[20],0.312
same,glycan array binding signal (z-score),[21],0.97
same,glycan array binding signal (z-score),[22],-0.717
same,glycan array binding signal (z-score),[23],0.758
same,glycan array binding signal (z-score),[24],0.13
same,glycan array binding signal (z-score),[25],0.975
same,glycan array binding signal (z-score),Neu5Ac(a2-6)GalNAc,-0.867
same,glycan array binding signal (z-score),[26],-0.182
same,glycan array binding signal (z-score),[27],-1.96
same,glycan array binding signal (z-score),[28],-0.969
same,glycan array binding signal (z-score),[29],2.47

# A second format for some results above.
binder	measurement	setting	value
B1	glycan array binding signal (z-score)	[7]	-0.557
same	glycan array binding signal (z-score)	[8]	1.22
